# This is one part of the list.
# Tested on: T1, CTL2-GFP (C. trachomatis L2/434/Bu, GFP-expressing)
# T1 construct: L2/434/Bu, GFP-expressing
# Set-up: species or system HeLa; Intracellular C. trachomatis growth in HeLa cells, bulk GFP fluorescence relative to DMSO
# Conditions: bulk GFP, single well; 28.5 h, 10 µM; inhibitor
row,Structure (SMILES),% of control remaining [%]
1,O=C(NCc1cccs1)C1(Cc2ccccc2-c2coc3ccccc23)CCOCC1 [CBK286310],107.549
2,CC(NC(=O)C1CCN(Cc2ccccn2)CC1)c1cccc2ccccc12 (stereo not shown) [CBK148662],77.4986
3,CN(Cc1ccc(F)cc1F)C(=O)Cn1nc2n(c1=O)CCCCC2 [CBK304598],95.4449
4,O=C(Nc1ccccc1N1CCNCC1)C1(c2ccccc2)CCCCC1 [CBK028281T],104.573
5,CNc1nc2ccccc2n1CC(=O)c1ccccc1 [CBK262251B],95.498
6,Cc1nn2c(O)c(CCO)c(C(=O)O)nc2c1-c1ccc(Cl)cc1 [CBK286699],96.8649
7,Cc1ccc(C(=O)N2CCN(CC(=O)N3CCCC3)CC2)cc1 [CBK039096],111.175
8,Cc1nc2ccccc2c(O)c1CN1CCN(C)CC1 [CBK027922],112.025
9,c1cncc(-c2cncc(NCc3ccc4c(c3)OCO4)n2)c1 [CBK065313],179.466
10,O=C(COc1ccc(S(=O)(=O)N2CCCCC2)cc1)N1CCN(Cc2ccccc2)CC1 [CBK269144],131.696
11,N#Cc1c(Cl)cccc1Oc1ccc(S(=O)(=O)Nc2cccc(C(=O)O)c2)cc1 [CBK155718],105.985
12,O=C(Cn1ccc2ccnc(-c3cccs3)c21)NCc1ccccn1 [CBK284735],123.932
13,CN(Cc1ccccc1)C(=O)CCNS(=O)(=O)c1ccccc1 [CBK268585],110.048
14,O=C(Nc1cncc(N2CCNCC2)n1)c1coc2c1C(=O)CCC2 [CBK004229T],136.228
15,Cn1cnnc1Sc1cc(N2CCN(S(=O)(=O)c3ccc(Cl)c(Cl)c3)CC2)ccc1[N+](=O)[O-] [CBK266618],128.858
16,O=C(O)c1ccc(C2(c3ccc(C(=O)O)cc3)OC(=O)c3ccccc32)cc1 [CBK261150],107.31
17,O=C1N(Cc2ccc(Br)cc2)CCc2cncn21 [CBK021187],146.771
18,Cc1cn2cccc(C(=O)N3CCCCC3CCN3CCOCC3)c2n1 (stereo not shown) [CBK306518],158.149
19,CCc1ccc(OCC(=O)Nc2cccnc2)cc1 [CBK264658],123.561
20,O=C(CNC(=O)C1CCCCC1)NNC(=O)c1sc2ccccc2c1Cl [CBK267903],136.242
21,Cc1noc(C)c1C(=O)N1CC[C@H]2NC(=O)c3ccccc3OCC/C=C/C[C@H]2C1 [CBK291994],109.383
22,Cc1nc(CNC(=O)NC2CCCN(c3ccn(C)n3)C2=O)c(C)s1 (stereo not shown) [CBK305926],117.794
23,Cc1ccc2nc(Cl)c(/C=N/NC(=O)CN3CCOCC3)cc2c1 [CBK262731],76.2409
24,COc1cccc2c1OC(c1cccnc1)N1N=C(c3cccc(O)c3)CC21 (stereo not shown) [CBK287747],97.2222
25,Cn1c(=O)n(C)c2cc(S(=O)(=O)ON3C(=O)c4cccc5cc([N+](=O)[O-])cc(c45)C3=O)ccc21 [CBK267566],122.583

# Retrieved by compound from the entries so far (two):
row,Structure (SMILES),% of control remaining [%]
9,c1cncc(-c2cncc(NCc3ccc4c(c3)OCO4)n2)c1 [CBK065313],179.466
2,CC(NC(=O)C1CCN(Cc2ccccn2)CC1)c1cccc2ccccc12 (stereo not shown) [CBK148662],77.4986

# Following part

row,Structure (SMILES),% of control remaining [%]
1,Cc1ccc(CNC(=O)Cn2nnc(-c3ccc(CN4CCC(S(C)(=O)=O)C4)cc3)n2)cc1 (stereo not shown) [CBK155407T],99.1001
2,CCOC(=O)c1c(NC(=O)c2nc3ncccn3n2)sc(C)c1C [CBK267630],118.121
3,CN(C)CCN(C)c1cccc(-c2cccc(OC(F)(F)F)c2)n1 [CBK037020],181.244
4,O=C(CN1CCN(c2ccc(C(F)(F)F)cn2)CC1)c1ccccc1 [CBK074699],63.2044
5,COc1ccc(CNC(=O)CSc2nnc(-c3ccncc3)n2C)cc1 [CBK266613],151.022
6,O=C(CC1CCCC1)N1CCC(c2cc(CCOc3cccc(C(F)(F)F)c3)[nH]n2)C1 (stereo not shown) [CBK286267],94.1855
7,O=C(Nc1ccc(Cl)c(S(=O)(=O)N2CCCC2)c1)c1cnccn1 [CBK295176],145.088
8,COCCn1c(SCc2cn3c(C)cccc3n2)nc(C)c1C [CBK304050],107.794
9,N=C(N/N=C\c1ccncc1)N/N=C\c1ccncc1 [CBK263278C],108.132
10,O=C(O)c1cc(NS(=O)(=O)c2ccc(N3CCCCC3)c([N+](=O)[O-])c2)cc(C(=O)O)c1 [CBK263876],77.2178
11,O=S(=O)(N1CCOCC1)N1CCN(CC(O)COc2ccc3cc(Br)ccc3c2)CC1 (stereo not shown) [CBK268840],88.0325
12,Nc1nonc1-n1nnc(C(=O)N/N=C/c2nc3ccccc3[nH]2)c1-c1ccccc1 [CBK262815],126.875
13,CC12CCCN1CCCN2C(=O)c1c[nH]c2ccccc12 (stereo not shown) [CBK169228],105.012
14,Cc1ccc(C(=O)NC2CCCCC2)c(N2CCOCC2)n1 [CBK076388],138.559
15,Cc1ccc(C2(O)CC3CCC(C2)N3C(=O)c2ccncc2)cc1 (stereo not shown) [CBK284609],137.711
16,O=C(Cc1coc2ccc3ccccc3c12)NNC(=O)c1ccccc1[N+](=O)[O-] [CBK268763],141.376
17,CSc1ncc(C(=O)N2CCC(N3CCCC(CO)C3)CC2)c(=O)[nH]1 (stereo not shown) [CBK307338],148.514
18,CC(=O)Nc1c(O)nc(SCC(=O)Nc2ccccc2C(N)=O)[nH]c1=O [CBK268031],104.17
19,OC(c1ccc2c(c1)OCO2)C1CCCCC1N1CCCCCC1 (stereo not shown) [CBK022779C],183.173
20,CCCc1cc(C(=O)N2CCc3sccc3C2C)[nH]n1 (stereo not shown) [CBK283072],109.17
21,OC(CNCc1ccc2c(c1)OCO2)COc1ccc(Cl)c(Cl)c1 (stereo not shown) [CBK074649],121.022
22,Cc1nn(C)cc1CN(C)CC(=O)Nc1nc2c(s1)CC(C)CC2 (stereo not shown) [CBK306669],129.092
23,NC(=O)C1CCN(C(=O)CSc2nc3ccccc3s2)CC1 [CBK293953],133.008
24,O=C(Cn1cc(C(=O)Nc2ccc(F)cc2)ccc1=O)Nc1nc2c(s1)CCCCC2 [CBK286080],102.541

# Source: article PMC12040169 (PLOS Biology, 2025)
